{"sequences": {"note": "By UniProt entry, the sequences of proteins in these tests, tags left out.", "UniProt Q96321": "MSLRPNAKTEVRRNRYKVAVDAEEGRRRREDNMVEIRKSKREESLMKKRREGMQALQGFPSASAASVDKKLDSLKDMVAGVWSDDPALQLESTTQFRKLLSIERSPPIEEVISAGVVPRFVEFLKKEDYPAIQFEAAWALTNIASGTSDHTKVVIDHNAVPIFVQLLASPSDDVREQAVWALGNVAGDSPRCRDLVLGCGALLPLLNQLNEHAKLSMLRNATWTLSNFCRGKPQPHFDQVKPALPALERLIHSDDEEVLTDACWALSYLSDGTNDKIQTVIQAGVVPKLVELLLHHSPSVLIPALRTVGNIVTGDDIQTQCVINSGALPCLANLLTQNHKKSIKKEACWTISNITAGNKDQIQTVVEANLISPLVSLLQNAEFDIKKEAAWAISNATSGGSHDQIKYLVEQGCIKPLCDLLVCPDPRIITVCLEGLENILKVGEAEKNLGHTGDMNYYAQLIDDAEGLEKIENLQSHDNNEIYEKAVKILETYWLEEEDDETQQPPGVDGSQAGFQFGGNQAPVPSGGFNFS", "UniProt F4JP43": "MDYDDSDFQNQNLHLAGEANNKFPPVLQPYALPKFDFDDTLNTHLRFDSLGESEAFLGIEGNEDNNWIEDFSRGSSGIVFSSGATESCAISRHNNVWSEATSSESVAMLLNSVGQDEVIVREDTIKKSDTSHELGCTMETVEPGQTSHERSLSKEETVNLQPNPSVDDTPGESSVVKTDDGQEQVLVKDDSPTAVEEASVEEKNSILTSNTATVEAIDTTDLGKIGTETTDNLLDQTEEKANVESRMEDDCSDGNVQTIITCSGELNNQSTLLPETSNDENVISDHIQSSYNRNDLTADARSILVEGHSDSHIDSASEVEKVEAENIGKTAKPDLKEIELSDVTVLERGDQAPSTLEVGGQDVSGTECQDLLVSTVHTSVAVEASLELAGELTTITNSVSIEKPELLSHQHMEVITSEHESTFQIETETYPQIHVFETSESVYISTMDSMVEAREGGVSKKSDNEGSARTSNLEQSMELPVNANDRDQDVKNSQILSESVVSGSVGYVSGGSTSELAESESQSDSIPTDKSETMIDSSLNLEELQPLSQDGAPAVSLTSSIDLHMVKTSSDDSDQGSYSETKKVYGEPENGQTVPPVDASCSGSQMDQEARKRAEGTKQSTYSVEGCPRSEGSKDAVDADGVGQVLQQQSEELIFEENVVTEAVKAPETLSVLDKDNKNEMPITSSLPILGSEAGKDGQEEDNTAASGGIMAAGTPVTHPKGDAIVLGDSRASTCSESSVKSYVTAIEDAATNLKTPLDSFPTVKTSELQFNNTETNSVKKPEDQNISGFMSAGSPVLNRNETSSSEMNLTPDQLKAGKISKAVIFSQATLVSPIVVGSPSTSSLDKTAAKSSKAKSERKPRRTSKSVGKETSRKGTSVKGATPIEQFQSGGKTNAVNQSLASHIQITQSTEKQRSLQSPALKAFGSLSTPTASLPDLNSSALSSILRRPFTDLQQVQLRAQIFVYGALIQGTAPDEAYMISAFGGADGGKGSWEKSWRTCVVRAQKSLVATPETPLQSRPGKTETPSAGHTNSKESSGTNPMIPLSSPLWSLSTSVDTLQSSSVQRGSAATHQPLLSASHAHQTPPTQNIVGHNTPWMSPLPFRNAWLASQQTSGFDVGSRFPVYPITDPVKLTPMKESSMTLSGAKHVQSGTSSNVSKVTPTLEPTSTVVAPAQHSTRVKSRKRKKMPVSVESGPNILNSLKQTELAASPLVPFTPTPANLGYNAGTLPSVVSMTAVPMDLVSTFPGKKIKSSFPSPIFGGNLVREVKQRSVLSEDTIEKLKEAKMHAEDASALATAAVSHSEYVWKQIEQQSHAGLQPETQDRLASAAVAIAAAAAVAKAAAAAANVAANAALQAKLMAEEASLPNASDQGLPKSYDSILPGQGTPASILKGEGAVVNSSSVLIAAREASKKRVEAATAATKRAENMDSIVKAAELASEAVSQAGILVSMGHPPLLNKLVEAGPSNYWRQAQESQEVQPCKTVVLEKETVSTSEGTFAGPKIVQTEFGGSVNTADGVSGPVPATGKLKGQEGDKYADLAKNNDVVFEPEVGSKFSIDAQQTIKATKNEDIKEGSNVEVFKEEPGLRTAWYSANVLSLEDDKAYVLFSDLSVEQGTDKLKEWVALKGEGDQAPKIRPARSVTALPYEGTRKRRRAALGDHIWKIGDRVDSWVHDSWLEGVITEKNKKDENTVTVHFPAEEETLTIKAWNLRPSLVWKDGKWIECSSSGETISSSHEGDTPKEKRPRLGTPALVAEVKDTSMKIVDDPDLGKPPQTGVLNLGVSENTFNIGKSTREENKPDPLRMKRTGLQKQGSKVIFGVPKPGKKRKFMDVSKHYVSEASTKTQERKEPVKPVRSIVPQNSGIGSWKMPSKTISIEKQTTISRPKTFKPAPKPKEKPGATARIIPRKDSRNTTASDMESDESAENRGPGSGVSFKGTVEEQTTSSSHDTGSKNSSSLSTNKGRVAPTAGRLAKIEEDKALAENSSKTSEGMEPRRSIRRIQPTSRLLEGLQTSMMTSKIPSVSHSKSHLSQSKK", "UniProt F4JL11": "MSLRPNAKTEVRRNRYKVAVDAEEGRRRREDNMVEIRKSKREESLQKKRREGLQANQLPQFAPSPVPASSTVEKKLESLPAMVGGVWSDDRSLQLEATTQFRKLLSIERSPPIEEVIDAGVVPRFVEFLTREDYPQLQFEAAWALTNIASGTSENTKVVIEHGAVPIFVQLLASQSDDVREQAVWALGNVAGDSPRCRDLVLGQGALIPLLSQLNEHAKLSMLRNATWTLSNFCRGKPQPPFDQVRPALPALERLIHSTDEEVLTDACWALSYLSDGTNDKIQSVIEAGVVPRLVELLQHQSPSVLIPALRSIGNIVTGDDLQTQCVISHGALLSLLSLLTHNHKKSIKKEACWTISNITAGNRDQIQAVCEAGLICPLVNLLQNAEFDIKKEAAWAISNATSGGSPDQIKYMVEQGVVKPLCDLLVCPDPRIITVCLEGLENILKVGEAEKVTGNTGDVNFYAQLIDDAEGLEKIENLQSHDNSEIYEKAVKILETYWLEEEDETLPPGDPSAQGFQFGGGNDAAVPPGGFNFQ", "UniProt Q9SMV6": "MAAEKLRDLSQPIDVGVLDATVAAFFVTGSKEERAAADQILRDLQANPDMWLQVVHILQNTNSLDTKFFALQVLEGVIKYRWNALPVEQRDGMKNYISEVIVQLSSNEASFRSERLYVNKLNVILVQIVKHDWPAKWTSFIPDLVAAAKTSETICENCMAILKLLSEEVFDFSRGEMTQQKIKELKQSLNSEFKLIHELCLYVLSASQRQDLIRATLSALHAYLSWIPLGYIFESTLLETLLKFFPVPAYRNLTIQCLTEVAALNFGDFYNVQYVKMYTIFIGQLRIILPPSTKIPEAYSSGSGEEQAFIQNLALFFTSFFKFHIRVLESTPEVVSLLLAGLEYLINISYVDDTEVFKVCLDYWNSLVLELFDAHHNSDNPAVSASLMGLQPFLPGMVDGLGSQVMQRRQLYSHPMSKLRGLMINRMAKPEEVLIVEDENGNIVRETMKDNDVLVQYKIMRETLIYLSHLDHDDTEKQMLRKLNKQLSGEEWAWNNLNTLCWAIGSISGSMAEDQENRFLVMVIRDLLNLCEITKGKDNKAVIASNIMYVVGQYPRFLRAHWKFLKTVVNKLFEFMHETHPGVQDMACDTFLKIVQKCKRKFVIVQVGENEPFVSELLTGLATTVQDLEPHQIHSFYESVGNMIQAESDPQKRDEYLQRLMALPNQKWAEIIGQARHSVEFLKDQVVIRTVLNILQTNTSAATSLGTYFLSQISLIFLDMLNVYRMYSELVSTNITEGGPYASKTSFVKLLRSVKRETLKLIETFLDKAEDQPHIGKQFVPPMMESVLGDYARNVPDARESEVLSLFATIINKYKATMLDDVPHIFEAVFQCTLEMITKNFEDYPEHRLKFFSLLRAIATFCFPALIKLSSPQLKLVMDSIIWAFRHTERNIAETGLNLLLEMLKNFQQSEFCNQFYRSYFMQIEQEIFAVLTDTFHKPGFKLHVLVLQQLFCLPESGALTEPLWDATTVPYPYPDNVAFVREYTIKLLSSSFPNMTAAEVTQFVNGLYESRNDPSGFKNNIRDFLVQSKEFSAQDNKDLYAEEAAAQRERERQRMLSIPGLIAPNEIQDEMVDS", "UniProt Q8RWY3": "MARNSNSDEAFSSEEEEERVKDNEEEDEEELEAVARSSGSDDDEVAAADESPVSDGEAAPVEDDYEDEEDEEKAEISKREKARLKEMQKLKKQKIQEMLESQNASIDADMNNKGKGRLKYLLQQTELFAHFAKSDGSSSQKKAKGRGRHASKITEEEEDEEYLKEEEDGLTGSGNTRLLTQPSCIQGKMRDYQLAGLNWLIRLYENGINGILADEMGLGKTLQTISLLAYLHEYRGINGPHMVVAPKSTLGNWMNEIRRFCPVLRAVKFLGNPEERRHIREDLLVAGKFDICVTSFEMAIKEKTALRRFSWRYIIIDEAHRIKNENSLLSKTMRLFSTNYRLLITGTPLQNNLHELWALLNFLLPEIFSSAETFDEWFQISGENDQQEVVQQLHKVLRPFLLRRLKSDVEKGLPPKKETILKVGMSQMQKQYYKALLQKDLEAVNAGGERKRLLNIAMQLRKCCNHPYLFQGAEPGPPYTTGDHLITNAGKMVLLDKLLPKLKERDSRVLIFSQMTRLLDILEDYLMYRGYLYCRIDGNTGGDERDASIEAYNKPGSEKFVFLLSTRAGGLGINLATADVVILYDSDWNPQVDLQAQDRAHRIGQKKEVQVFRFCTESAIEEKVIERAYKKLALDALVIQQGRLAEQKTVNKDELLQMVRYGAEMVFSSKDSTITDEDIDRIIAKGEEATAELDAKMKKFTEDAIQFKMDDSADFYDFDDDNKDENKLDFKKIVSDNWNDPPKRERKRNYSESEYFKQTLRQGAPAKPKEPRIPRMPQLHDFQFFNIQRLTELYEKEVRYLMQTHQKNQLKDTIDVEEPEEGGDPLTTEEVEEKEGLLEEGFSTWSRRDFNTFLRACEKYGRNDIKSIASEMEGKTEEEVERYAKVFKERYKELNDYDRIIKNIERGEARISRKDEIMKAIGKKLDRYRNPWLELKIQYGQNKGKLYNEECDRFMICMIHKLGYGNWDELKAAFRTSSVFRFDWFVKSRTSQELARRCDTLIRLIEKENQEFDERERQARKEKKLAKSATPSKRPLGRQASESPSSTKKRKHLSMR", "UniProt O80480": "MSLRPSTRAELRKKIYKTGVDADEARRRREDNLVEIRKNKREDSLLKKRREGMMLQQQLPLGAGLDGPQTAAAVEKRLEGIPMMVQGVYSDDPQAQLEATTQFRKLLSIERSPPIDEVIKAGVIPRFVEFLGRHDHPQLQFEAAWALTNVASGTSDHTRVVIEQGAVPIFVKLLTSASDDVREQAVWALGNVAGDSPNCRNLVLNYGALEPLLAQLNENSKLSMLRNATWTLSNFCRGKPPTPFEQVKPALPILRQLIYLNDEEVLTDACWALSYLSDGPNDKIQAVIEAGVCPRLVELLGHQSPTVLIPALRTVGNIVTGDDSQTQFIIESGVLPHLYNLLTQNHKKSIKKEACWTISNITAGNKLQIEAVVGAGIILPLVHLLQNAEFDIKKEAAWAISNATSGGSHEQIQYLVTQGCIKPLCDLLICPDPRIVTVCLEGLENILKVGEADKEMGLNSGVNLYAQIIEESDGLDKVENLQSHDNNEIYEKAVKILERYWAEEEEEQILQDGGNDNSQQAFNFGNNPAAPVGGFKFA", "UniProt O04294": "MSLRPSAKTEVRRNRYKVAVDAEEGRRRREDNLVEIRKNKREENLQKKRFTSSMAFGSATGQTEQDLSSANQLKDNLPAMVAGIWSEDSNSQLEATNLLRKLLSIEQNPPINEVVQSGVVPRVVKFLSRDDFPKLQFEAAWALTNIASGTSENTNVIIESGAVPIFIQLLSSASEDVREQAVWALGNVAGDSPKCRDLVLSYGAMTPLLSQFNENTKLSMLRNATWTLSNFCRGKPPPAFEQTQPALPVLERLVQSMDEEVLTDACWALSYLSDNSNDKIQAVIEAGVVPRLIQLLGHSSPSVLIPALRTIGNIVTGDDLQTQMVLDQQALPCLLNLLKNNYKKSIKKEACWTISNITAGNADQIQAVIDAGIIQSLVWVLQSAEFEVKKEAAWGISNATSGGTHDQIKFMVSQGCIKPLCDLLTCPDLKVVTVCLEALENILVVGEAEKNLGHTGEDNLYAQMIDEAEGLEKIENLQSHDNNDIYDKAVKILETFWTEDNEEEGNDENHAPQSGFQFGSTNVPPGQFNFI"}, "source": "paper PMC10442049", "molecules": {"B1": {"name": "WIT1, endogenous (protein, UniProt Q8L7E5 1-703)", "chain": "METETEHDRTVSVDDNDSLVPEPSSTKESFFEDLSLTGQVMNPQLSSAGEVLTKVELDFAFVSEKLVNLSLLTMQLGTRENDFESFVSKKEEDEEEPSSNVDDDDDSAEKALEFDLLSSILNSEVKELESLLGFLQNEIQSARVMISPFQHDGEAFLDLEGKLNDTEQSLGQLMEQVVEMKKQSSNFQRLSSGLDEQGSWSGGQTSVSQNDGEFGDLSAKINMQTADQQRNVLRMLEKSLAKEMELEKKLSESRNTERELEMKLYSSEQDVVYMEEVTEDAFSRWLEADNAAEVFKGTSKEMSGKLQILQFNLSGSFKREDNLKSKLVDSKERLEAKECALHKLDSSNARLADFLVAQTEGLKESLQEAEEKLILLNTENSTLSEKVSSLEEQLNEYGIQTEDADATSGALITDLERINEELKDKLAKTEARAEETESKCKILEESKKELQDELGNFRDKGFTIHKLASLEKHLRDSDLQLEHAVAAVEASKEKQNLLYSTVSDMEDVIEDLKSKVLKAENRADITEEKLIMVSESNAEVNEELKFFKGRLKEGEKYLQQAEERKLRTAKDIGVHNKIMKKLVMQLAAERERLHKQITNLSRENCVLMVKLKKVGKTGYMESGNGSEVSPKSDQNASSCHQGSRLQATFISLTNPEEEETGSKSDIGSVRRLDVGALRFKHILVAILVILISSIAYVISQQNM"}, "B2": {"name": "UBP12, endogenous (protein, UniProt Q9FPT1 1-1116)", "chain": "MTMMTPPPVDQPEDEEMLVPNSDLVDGPAQPMEVTQPETAASTVENQPAEDPPTLKFTWTIPNFSRQNTRKHYSDVFVVGGYKWRILIFPKGNNVDHLSMYLDVSDAASLPYGWSRYAQFSLAVVNQIHTRYTVRKETQHQFNARESDWGFTSFMPLSELYDPSRGYLVNDTVLVEAEVAVRKVLDYWSYDSKKETGFVGLKNQGATCYMNSLLQTLYHIPYFRKAVYHMPTTENDAPTASIPLALQSLFYKLQYNDTSVATKELTKSFGWDTYDSFMQHDVQELNRVLCEKLEDKMKGTVVEGTIQQLFEGHHMNYIECINVDFKSTRKESFYDLQLDVKGCKDVYASFDKYVEVERLEGDNKYHAEGHGLQDAKKGVLFIDFPPVLQLQLKRFEYDFMRDTMVKINDRYEFPLELDLDREDGKYLSPDADRSVRNLYTLHSVLVHSGGVHGGHYYAFIRPTLSDQWYKFDDERVTKEDLKRALEEQYGGEEELPQTNPGFNNNPPFKFTKYSNAYMLVYIRESDKDKIICNVDEKDIAEHLRVRLKKEQEEKEDKRRYKAQAHLYTIIKVARDEDLKEQIGKDIYFDLVDHDKVRSFRIQKQTPFQQFKEEVAKEFGVPVQLQRFWIWAKRQNHTYRPNRPLTPQEELQPVGQIREASNKANTAELKLFLEVEHLDLRPIPPPEKSKEDILLFFKLYDPEKAVLSYAGRLMVKSSSKPMDITGKLNEMVGFAPDEEIELFEEIKFEPCVMCEHLDKKTSFRLCQIEDGDIICFQKPLVNKEIECLYPAVPSFLEYVQNRQLVRFRALEKPKEDEFVLELSKQHTYDDVVEKVAEKLGLDDPSKLRLTSHNCYSQQPKPQPIKYRGVDHLSDMLVHYNQTSDILYYEVLDIPLPELQGLKTLKVAFHHATKEEVVIHNIRLPKQSTVGDVINELKTKVELSHPDAELRLLEVFYHKIYKIFPSTERIENINDQYWTLRAEEIPEEEKNIGPNDRLILVYHFAKETGQNQQVQNFGEPFFLVIHEGETLEEIKNRIQKKLHVSDEDFAKWKFAFMSMGRPEYLQDTDVVYNRFQRRDVYGAFEQYLGLEHADTTPKRAYAANQNRHAYEKPVKIYN"}, "B3": {"name": "UBP13, endogenous (protein, UniProt Q84WU2 1-1115)", "chain": "MTMMTPPPLDQQEDEEMLVPNPDLVEGPQPMEVAQTDPAATAVENPPPEDPPSLKFTWTIPMFTRLNTRKHYSDVFVVGGYKWRILIFPKGNNVDHLSMYLDVADAANLPYGWSRYSQFSLAVVNQVNNRYSIRKETQHQFNARESDWGFTSFMPLSELYEPTRGYLVNDTVLIEAEVAVRKVLDYWSYDSKKETGFVGLKNQGATCYMNSLLQTLYHIPYFRKAVYHMPTTENDAPTASIPLALQSLFYKLQYNDTSVATKELTKSFGWDTYDSFMQHDVQELNRVLCEKLEDKMKGTVVEGTIQKLFEGHHMNYIECINVDYKSTRKESFYDLQLDVKGCKDVYASFDKYVEVERLEGDNKYHAEGHDLQDAKKGVLFIDFPPVLQLQLKRFEYDFMRDTMVKINDRYEFPLQLDLDREDGRYLSPDADKSVRNLYTLHSVLVHSGGVHGGHYYAFIRPTLSDQWYKFDDERVTKEDVKRALEEQYGGEEELPQNNPGFNNPPFKFTKYSNAYMLVYIRESDKDKIICNVDEKDIAEHLRVRLKKEQEEKEDKRKYKAQAHLFTTIKVARDDDITEQIGKNIYFDLVDHEKVRSFRIQKQTPFQQFKEEVAKEFGVPVQLQRFWIWAKRQNHTYRPNRPLSPNEELQTVGQIREASNKANNAELKLFLEIERGPDDLPIPPPEKTSEDILLFFKLYDPENAVLRYVGRLMVKSSSKPMDIVGQLNKMAGFAPDEEIELFEEIKFEPCVMCEQIDKKTSFRLCQIEDGDIICYQKPLSIEESEFRYPDVPSFLEYVQNRELVRFRTLEKPKEDEFTMELSKLHTYDDVVERVAEKLGLDDPSKLRLTSHNCYSQQPKPQPIKYRGVDHLSDMLVHYNQTSDILYYEVLDIPLPELQGLKTLKVAFHSATKDEVIIHNIRLPKQSTVGDVINELKTKVELSHQDAELRLLEVFFHKIYKIFPSTERIENINDQYWTLRAEEIPEEEKNIGPNDRLIHVYHFTKEAGQNQQVQNFGEPFFLVIHEGETLEEIKTRIQKKLHVPDEDFAKWKFASFSMGRPDYLLDTDVVYNRFQRRDVYGAWEQYLGLEHIDNAPKRAYAANQNRHAYEKPVKIYN"}, "B4": {"name": "AtNFXL1, endogenous (protein, UniProt Q9SY59 1-1188)", "chain": "MSFQVRRDRSDDRSHRFNHQQTWIPRNSSTSSVVVNEPLLPPNTDRNSETLDAGSASRPVYLQRQHNASGPPSYNHHQRSSNIGPPPPNQHRRYNAPDNQHQRSDNIGPPQPNQHRRYNAPDNQHQRSDNSGPPQPYRHRRNNAPENQHQRSDNIGPPPPNRQRRNNASGTLPDNRQRVASRTRPVNQGKRVAKEENVVLTDPNLPQLVQELQEKLVKSSIECMICYDKVGRSANIWSCSSCYSIFHINCIKRWARAPTSVDLLAEKNQGDNWRCPGCQSVQLTSSKEISYRCFCGKRRDPPSDPYLTPHSCGEPCGKPLEKEFAPAETTEEDLCPHVCVLQCHPGPCPPCKAFAPPRSCPCGKKMVTTRCSERRSDLVCGQRCDKLLSCGRHQCERTCHVGPCDPCQVLVNATCFCKKKVETVICGDMNVKGELKAEDGVYSCSFNCGKPLGCGNHFCSEVCHPGPCGDCDLLPSRVKTCYCGNTRLEEQIRQSCLDPIPSCSNVCRKLLPCRLHTCNEMCHAGDCPPCLVQVNQKCRCGSTSRAVECYITTSSEAEKFVCAKPCGRKKNCGRHRCSERCCPLLNGKKNDLSGDWDPHVCQIPCQKKLRCGQHSCESLCHSGHCPPCLEMIFTDLTCACGRTSIPPPLSCGTPVPSCQLPCPIPQPCGHSDTHGCHFGDCPPCSTPVEKKCVGGHVVLRNIPCGLKDIRCTKICGKTRRCGMHACARTCHPEPCDSFNESEAGMRVTCRQKCGAPRTDCRHTCAALCHPSAPCPDLRCEFSVTITCSCGRITATVPCDAGGRSANGSNVYCAAYDEASVLQKLPAPLQPVESSGNRIPLGQRKLSCDDECAKLERKRVLQDAFDITPPNLEALHFSENSAMTEIISDLYRRDPKWVLAVEERCKFLVLGKARGSTSALKVHIFCPMQKDKRDTVRLIAERWKLGVSNAGWEPKRFTVVHVTAKSKPPTRIIGARGGAISIGGPHPPFYDSLVDMDPGLVVSFLDLPREANISALVLRFGGECELVWLNDKNALAVFHDHARAATAMRRLEHGSVYHGAVVVQSGGQSPSLNNVWGKLPGSSAWDVDKGNPWRRAVIQESDDSWGAEDSPIGGSSTDAQASALRSAKSNSPIVTSVNRWSVLEPKKASTSTLEPIAQIEESSSSKTTGKQPVEGSGEEVVDDWEKVCE"}, "B5": {"name": "KPNB1 (importin beta), endogenous (protein, UniProt Q9FJD4 1-870)", "chain": "MAMEVTQLLINAQSIDGTVRKHAEESLKQFQEQNLAGFLLSLAGELANDEKPVDSRKLAGLVLKNALDAKEQHRKYELVQRWLALDMSTKSQIRAFLLKTLSAPVPDVRSTASQVIAKVAGIELPQKQWPELIVSLLSNIHQLPAHVKQATLETLGYLCEEVSPDVVEQEHVNKILTAVVQGMNAAEGNTDVRLAATRALYMALGFAQANFNNDMERDYIMRVVCEATLSPEVKIRQAAFECLVSIASTYYEKLAHYMQDIFNITAKAVREDDESVALQAIEFWSSICDEEIDILEEYGGEFAGDSDVPCFYFTKQALPGLVPLLLETLLKQEEDQDLDEGAWNIAMAGGTCLGLVARAVGDDIVPHVMPFIEEKISKPDWREREAATYAFGSILEGPSADKLMAIVNAALTFMLNALTNDPSNHVKDTTAWTLGRIFEFLHGSTIETPIINQANCQQIITVLIQSMNDAPNVAEKACGALYFLAQGYEDIGPSSPLTPFFQEIIKSLLAVAHREDATESRLRTAAYEALNEVVRCSTDETSTMVLQLVPVIMMELHNTLEGEKLSLDEREKQNELQGLLCGCLQVIIQKLGSEPTKSKFMEYADQMMGLFLRVFGCRSATAHEEAMLAIGALAYAAGPNFAKYMPEFYKYLEMGLQNFEEYQVCAVTVGVVGDVCRALEDKILPYCDGIMTQLLKDLSSNQLHRSVKPPIFSCFGDIALAIGEDFDKYWRYSMPMLQSAAELSAHSAGADDEMTEYTNSLRNGILEAYSGIFQGFKNSAKTQLLIPFAPHILQFLDSIYMEKDMDEVVMKTAIGVLGDLADTLGSHVGGLIQQSVSSKEFLNECLSSEDHTIKEAAEWAKHAITRAISV"}}, "note": "These are yes or no findings as the source states them, for the method shown. In cells and extracts the contact can be indirect. A yes stands for co-enrichment or nearness to the bait. Other partners may have been found."}
{"target": "IMPA1-Myc (from pIMPA1:IMPA1-Myc) (Arabidopsis thaliana) (UniProt Q96321)", "assay": "affinity purification with mass spectrometry; IMPA1-Myc or IMPA2-Myc as bait from transgenic Arabidopsis seedlings; anti-Myc agarose beads, 4 °C, 2 h; lysis buffer 50 mM Tris pH 7.6, 150 mM NaCl, 5 mM MgCl2, 10% glycerol, 0.1% NP-40, 0.5 mM DTT"}
{"molecule": "SWO1 (SWOLLEN 1), endogenous (from UniProt F4JP43 1-2037)", "binding": "binds"}
{"target": "IMPA2-Myc (from pIMPA2:IMPA2-Myc) (Arabidopsis thaliana) (UniProt F4JL11)", "assay": "affinity purification with mass spectrometry; IMPA1-Myc or IMPA2-Myc as bait from transgenic Arabidopsis seedlings; anti-Myc agarose beads, 4 °C, 2 h; lysis buffer 50 mM Tris pH 7.6, 150 mM NaCl, 5 mM MgCl2, 10% glycerol, 0.1% NP-40, 0.5 mM DTT"}
{"molecule": "SWO1 (SWOLLEN 1), endogenous (from UniProt F4JP43 1-2037)", "binding": "binds"}
{"target": "SWO1g-Myc (SWOLLEN 1 with 3xMyc, from SWO1pro:SWO1g-Myc) (Arabidopsis thaliana) (UniProt F4JP43)", "assay": "affinity purification with mass spectrometry; SWO1g-Myc as bait from transgenic Arabidopsis seedlings; anti-Myc agarose beads, 4 °C, 2 h; lysis buffer 50 mM Tris pH 7.6, 150 mM NaCl, 5 mM MgCl2, 10% glycerol, 0.1% NP-40, 0.5 mM DTT; four independent experiments"}
{"molecule": "IMPA2 (importin alpha), endogenous (from UniProt F4JL11 1-535)", "binding": "binds"}
{"molecule": "XPO1A, endogenous (from UniProt Q9SMV6 1-1075)", "binding": "binds"}
{"molecule": "CHR11 (chromatin remodeling protein), endogenous (from UniProt Q8RWY3 1-1056)", "binding": "binds"}
{"molecule": "IMPA4 (importin alpha), endogenous (from UniProt O80480 1-538)", "binding": "binds"}
{"molecule": "MOS6 (importin alpha 3), endogenous (from UniProt O04294 1-531)", "binding": "binds"}
{"molecule": "IMPA1 (importin alpha), endogenous (from UniProt Q96321 1-532)", "binding": "binds"}
{"target": "SWO1g-Myc (SWOLLEN 1 with 3xMyc, from SWO1pro:SWO1g-Myc) (Arabidopsis thaliana) (UniProt F4JP43)", "assay": "affinity purification with mass spectrometry; SWO1g-Myc as bait from transgenic Arabidopsis seedlings; anti-Myc agarose beads, 4 °C, 2 h; lysis buffer 50 mM Tris pH 7.6, 150 mM NaCl, 5 mM MgCl2, 10% glycerol, 0.1% NP-40, 0.5 mM DTT; four independent experiments", "remark": "another data set of the same source"}
{"molecule": "B1", "binding": "binds"}
{"molecule": "B2", "binding": "binds"}
{"molecule": "B3", "binding": "binds"}
{"molecule": "B4", "binding": "binds"}
{"molecule": "B5", "binding": "binds"}
